Reference: US20200033364A1
Substitutions are numbered along the chain they refer to. These are yes or no findings as the source states them, for the method shown. Binding seen in cells or lysates may run through a third protein. Some results given as binding are weak or reduced against the parent protein; the word gives no strength.

B1: eculizumab (antibody, human IgG2, kappa)
heavy: QVQLVQSGAEVKKPGASVKVSCKASGYIFSNYWIQWVRQAPGQGLEWMGEILPGSGSTEYTENFKDRVTMTRDTSTSTVYMELSSLRSEDTAVYYCARYFFGSSPNWYFDVWGQGTLVTVSSASTKGPSVFPLAPCSRSTSESTAALGCLVKDYFPEPVTVSWNSGALTSGVHTFPAVLQSSGLYSLSSVVTVPSSNFGTQTYTCNVDHKPSNTKVDKTVERKCCVECPPCPAPPVAGPSVFLFPPKPKDTLMISRTPEVTCVVVDVSQEDPEVQFNWYVDGVEVHNAKTKPREEQFNSTYRVVSVLTVLHQDWLNGKEYKCKVSNKGLPSSIEKTISKAKGQPREPQVYTLPPSQEEMTKNQVSLTCLVKGFYPSDIAVEWESNGQPENNYKTTPPVLDSDGSFFLYSRLTVDKSRWQEGNVFSCSVMHEALHNHYTQKSLSLSLGK
light: DIQMTQSPSSLSASVGDRVTITCGASENIYGALNWYQQKPGKAPKLLIYGATNLADGVPSRFSGSGSGTDFTLTISSLQPEDFATYYCQNVLNTPLTFGQGTKVEIKRTVAAPSVFIFPPSDEQLKSGTASVVCLLNNFYPREAKVQWKVDNALQSGNSQESVTEQDSKDSTYSLSSTLTLSKADYEKHKVYACEVTHQGLSSPVTKSFNRGEC
B2: ALXN1210 (antibody, human IgG2, kappa)
heavy: B1 heavy with Y27H, S57H, M429L, N435S
light: B1 light

Biological target: Protein A (UniProt P38507)
Experiment: immunocapture from human serum on Protein A magnetic beads, then on-bead trypsin digestion and UPLC-MS/MS

Row | Binder | binding
1 | B1 | binds
2 | B2 | binds
